# Experimental data: article PMC7862700
# Protein sequences, listed by entry. Tags and fused reporters are not part of them. Lines headed by an entry give the natural chain unless they say otherwise; changes in a name come on top.
# UniProt Q01892: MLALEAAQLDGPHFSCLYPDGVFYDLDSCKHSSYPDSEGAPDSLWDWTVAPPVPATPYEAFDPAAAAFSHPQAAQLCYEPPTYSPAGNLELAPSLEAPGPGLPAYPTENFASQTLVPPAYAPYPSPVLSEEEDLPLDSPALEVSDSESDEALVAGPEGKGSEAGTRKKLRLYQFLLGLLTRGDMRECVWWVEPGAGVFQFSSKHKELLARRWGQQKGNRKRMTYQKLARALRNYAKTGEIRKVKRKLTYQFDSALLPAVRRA
# UniProt P41161: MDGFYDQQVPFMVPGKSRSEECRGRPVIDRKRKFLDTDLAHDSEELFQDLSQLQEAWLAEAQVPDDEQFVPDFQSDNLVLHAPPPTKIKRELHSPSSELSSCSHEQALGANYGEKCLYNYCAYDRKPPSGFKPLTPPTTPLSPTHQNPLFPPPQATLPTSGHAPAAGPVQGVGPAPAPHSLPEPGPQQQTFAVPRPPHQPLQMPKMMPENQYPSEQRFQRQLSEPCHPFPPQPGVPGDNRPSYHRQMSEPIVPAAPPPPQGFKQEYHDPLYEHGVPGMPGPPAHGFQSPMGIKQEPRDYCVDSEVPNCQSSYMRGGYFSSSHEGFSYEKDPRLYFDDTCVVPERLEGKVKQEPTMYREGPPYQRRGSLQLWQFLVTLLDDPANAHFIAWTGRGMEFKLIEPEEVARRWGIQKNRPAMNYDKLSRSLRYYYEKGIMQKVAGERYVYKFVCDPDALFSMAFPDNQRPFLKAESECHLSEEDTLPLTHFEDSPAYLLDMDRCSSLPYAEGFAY
# UniProt Q99607: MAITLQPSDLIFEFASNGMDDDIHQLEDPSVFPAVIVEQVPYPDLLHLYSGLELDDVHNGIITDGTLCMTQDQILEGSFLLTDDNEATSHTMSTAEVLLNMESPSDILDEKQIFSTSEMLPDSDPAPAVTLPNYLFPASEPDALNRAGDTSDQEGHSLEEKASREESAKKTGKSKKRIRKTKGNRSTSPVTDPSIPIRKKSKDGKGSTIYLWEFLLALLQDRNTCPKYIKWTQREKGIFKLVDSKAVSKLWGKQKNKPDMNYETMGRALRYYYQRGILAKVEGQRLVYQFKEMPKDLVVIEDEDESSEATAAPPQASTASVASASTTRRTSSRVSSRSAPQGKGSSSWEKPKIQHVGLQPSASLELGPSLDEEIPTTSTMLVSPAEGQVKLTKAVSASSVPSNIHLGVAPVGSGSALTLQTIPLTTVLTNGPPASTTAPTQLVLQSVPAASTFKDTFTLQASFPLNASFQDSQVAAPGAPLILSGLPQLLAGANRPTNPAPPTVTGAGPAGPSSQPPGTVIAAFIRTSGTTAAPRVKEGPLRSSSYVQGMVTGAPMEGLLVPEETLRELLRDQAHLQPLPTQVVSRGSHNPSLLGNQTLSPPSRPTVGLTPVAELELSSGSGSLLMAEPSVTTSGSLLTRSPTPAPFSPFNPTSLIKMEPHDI
# The entries are a selection whose mix differs from that of the whole data set. At the low end of the ranking, values are background and their order means little.
# Tests used:
# Test in all cases: DAPPL (digital affinity profiling via proximity ligation, sequencing)
# Conditions in all cases: 10 mM Tris-HCl pH 7.5, 50 mM NaCl, 1 mM DTT, 4% glycerol, room temperature, 30 min; GST-TFs on glutathione beads, 16-mer random dsDNA library, 0.1% …; high values mean tight binding; double strand, one strand shown; scale: fold enrichment (6-mer frequency, TF over GST control)
# FLI1 = target: T1, FLI1 (UniProt Q01543)
# T1 sequence: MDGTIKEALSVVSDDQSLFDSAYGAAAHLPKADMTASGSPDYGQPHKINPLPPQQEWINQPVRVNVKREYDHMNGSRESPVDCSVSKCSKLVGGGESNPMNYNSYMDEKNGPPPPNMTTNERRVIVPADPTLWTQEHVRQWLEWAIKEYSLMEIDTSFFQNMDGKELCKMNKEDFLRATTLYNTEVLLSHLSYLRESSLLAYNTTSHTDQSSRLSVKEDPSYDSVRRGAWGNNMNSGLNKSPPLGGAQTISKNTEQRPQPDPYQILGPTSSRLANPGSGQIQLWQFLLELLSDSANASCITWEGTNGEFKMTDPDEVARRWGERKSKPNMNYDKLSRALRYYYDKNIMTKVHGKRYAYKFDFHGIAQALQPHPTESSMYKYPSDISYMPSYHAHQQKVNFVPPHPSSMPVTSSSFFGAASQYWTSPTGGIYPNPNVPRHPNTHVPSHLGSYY
# EHF = target: T2, EHF (UniProt Q9NZC4)
# T2 sequence: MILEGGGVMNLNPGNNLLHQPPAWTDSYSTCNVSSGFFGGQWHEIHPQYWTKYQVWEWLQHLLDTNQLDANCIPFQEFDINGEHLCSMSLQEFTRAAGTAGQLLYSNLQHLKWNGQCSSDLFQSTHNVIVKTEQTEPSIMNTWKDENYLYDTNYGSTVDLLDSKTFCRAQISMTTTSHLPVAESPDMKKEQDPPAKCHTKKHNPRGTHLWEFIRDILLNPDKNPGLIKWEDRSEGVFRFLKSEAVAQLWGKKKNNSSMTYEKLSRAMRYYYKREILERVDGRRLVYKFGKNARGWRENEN
# SPIB = SPIB (UniProt Q01892)
# ETV5 = ETV5 (UniProt P41161)
# ELF4 = ELF4 (UniProt Q99607)
# ETV2 = target: T3, ETV2 (UniProt O00321)
# T3 sequence: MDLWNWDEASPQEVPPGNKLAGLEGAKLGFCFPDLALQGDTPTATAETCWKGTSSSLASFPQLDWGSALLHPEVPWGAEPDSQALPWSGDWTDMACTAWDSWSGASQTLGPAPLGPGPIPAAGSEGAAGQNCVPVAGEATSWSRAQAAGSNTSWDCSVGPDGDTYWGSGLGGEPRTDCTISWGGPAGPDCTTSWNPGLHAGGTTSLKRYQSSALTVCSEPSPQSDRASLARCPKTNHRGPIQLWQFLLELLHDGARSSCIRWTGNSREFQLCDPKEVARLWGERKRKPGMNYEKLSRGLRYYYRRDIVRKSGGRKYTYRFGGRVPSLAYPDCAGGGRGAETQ
# ETV3L = target: T4, ETV3L (UniProt Q6ZN32)
# T4 sequence: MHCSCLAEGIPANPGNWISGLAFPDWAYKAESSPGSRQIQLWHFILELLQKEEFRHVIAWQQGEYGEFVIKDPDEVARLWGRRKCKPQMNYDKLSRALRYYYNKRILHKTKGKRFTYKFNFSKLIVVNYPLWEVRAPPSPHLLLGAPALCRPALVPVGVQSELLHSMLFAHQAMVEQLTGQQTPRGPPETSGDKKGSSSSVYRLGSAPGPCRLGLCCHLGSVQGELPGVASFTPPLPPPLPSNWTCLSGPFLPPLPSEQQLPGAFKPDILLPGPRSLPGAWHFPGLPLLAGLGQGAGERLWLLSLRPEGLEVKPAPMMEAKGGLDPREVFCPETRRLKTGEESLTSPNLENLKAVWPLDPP
Sequence,binding signal (FLI1),binding signal (EHF),binding signal (SPIB),binding signal (ETV5),binding signal (ELF4),binding signal (ETV2),binding signal (ETV3L)
TAGGCG,0.619,0.659,0.665,0.641,0.635,0.64,0.664
GTGAAA,0.698,0.783,0.649,0.748,0.756,0.768,0.739
GGTAGG,0.604,0.627,0.697,0.624,0.626,0.717,0.639
CACAGG,0.828,0.88,0.994,0.888,0.933,0.964,0.93
AGTCGT,0.42,0.34,0.366,0.381,0.394,0.406,0.415
GAGCGT,0.352,0.301,0.32,0.334,0.34,0.289,0.351
AGAACG,0.411,0.442,0.424,0.45,0.474,0.486,0.454
ACGTGA,0.285,0.289,0.251,0.263,0.253,0.258,0.291
GTGGCG,0.772,0.768,0.823,0.841,0.794,0.83,0.93
GAGGTT,0.731,0.8,0.757,0.781,0.77,0.77,0.808
GTACGT,0.845,0.873,0.893,0.881,0.881,0.831,0.912
GGTCAT,0.785,0.792,0.927,0.818,0.86,0.793,0.907
CGTGGC,0.83,0.803,0.946,0.799,0.876,0.908,0.931
TGTCGG,0.334,0.368,0.39,0.34,0.349,0.347,0.348
AGTAGA,0.795,0.805,0.776,0.77,0.787,0.772,0.826
CTCGGA,0.938,0.826,0.805,0.845,0.81,0.823,0.87
GCGGCC,0.865,0.723,0.726,0.875,0.909,0.875,0.78
GTTGGA,0.437,0.51,0.469,0.487,0.459,0.51,0.464
ATTGGA,0.902,0.98,0.943,0.891,0.918,0.832,0.871
CACGAG,0.924,0.926,0.802,0.839,0.926,0.795,0.891

Sequence,binding signal (FLI1),binding signal (EHF),binding signal (SPIB),binding signal (ETV5),binding signal (ELF4),binding signal (ETV2),binding signal (ETV3L)
ACACAG,0.971,0.926,0.945,0.977,0.983,0.95,1.05
CACCGT,0.602,0.606,0.651,0.61,0.73,0.692,0.66
GGGCGA,0.684,0.734,0.758,0.718,0.775,0.998,0.78
GCGGGC,0.749,0.756,0.893,0.743,0.759,0.742,0.703
CCCGAG,0.826,0.982,0.939,0.84,0.826,0.816,0.825
AGACGT,0.487,0.446,0.421,0.462,0.464,0.418,0.425
AGGTGA,0.561,0.562,0.554,0.571,0.566,0.478,0.531
CAGGGA,0.55,0.532,0.548,0.494,0.535,0.532,0.528
GACAAT,0.883,0.872,0.858,0.909,0.905,0.915,0.949
GAGGCA,0.434,0.418,0.473,0.45,0.41,0.448,0.451
TAGACC,0.835,0.829,0.82,0.865,0.859,0.95,0.853
GAGTAA,0.563,0.568,0.562,0.574,0.555,0.525,0.517
AGGTTA,0.789,0.804,0.759,0.775,0.811,0.837,0.809
GACCGT,0.487,0.4,0.427,0.416,0.444,0.483,0.45
GCGGAT,0.797,0.87,0.855,0.848,0.83,0.968,0.902
TGAGTA,0.436,0.486,0.436,0.454,0.414,0.422,0.408
TCAGAG,0.711,0.709,0.722,0.803,0.727,0.795,0.711
CGTGAA,0.436,0.489,0.474,0.461,0.44,0.454,0.454
GCGGTA,0.809,0.768,0.757,0.745,0.765,0.758,0.822
CCGAGA,0.583,0.659,0.631,0.619,0.604,0.582,0.571

Sequence,binding signal (FLI1),binding signal (EHF),binding signal (SPIB),binding signal (ETV5),binding signal (ELF4),binding signal (ETV2),binding signal (ETV3L)
TCGGAT,0.512,0.513,0.526,0.533,0.475,0.506,0.532
GGGCGT,0.469,0.456,0.447,0.442,0.479,0.544,0.509
GGAACG,0.61,0.616,0.659,0.657,0.593,0.552,0.637
GAGAGA,0.466,0.396,0.392,0.42,0.435,0.43,0.397
CGTGTT,0.862,0.854,0.757,0.837,0.823,0.773,0.822
AGAGCC,0.766,0.813,0.688,0.7,0.748,0.693,0.67
AGTCCA,0.72,0.678,0.661,0.732,0.681,0.772,0.699
AGTCAT,0.558,0.597,0.543,0.581,0.575,0.609,0.601
GGGGCA,0.698,0.685,0.671,0.697,0.708,0.715,0.718
GAGGCG,0.444,0.367,0.411,0.381,0.382,0.403,0.389
AGCGTT,0.957,0.881,0.803,0.932,0.932,0.837,0.905
GCAGTA,0.933,0.916,0.777,0.825,0.837,0.965,0.938
GGGCAG,0.556,0.59,0.603,0.579,0.555,0.623,0.614
GGGACA,0.732,0.63,0.601,0.636,0.63,0.621,0.639
CGGAGC,0.374,0.381,0.417,0.367,0.364,0.287,0.408
GTGGAG,0.406,0.484,0.36,0.446,0.397,0.36,0.435
CAGTAA,0.716,0.736,0.73,0.722,0.757,0.79,0.717
AGAGTG,0.642,0.657,0.571,0.668,0.624,0.636,0.61
GAGGTG,0.489,0.447,0.508,0.546,0.472,0.502,0.468
TCAGGA,0.834,0.808,0.838,0.853,0.823,0.808,0.832

# Exported bar-delimited: entries from further up.
Sequence | binding signal (FLI1) | binding signal (EHF) | binding signal (SPIB) | binding signal (ETV5) | binding signal (ELF4) | binding signal (ETV2) | binding signal (ETV3L)
CGTGTT | 0.862 | 0.854 | 0.757 | 0.837 | 0.823 | 0.773 | 0.822
AGAGCC | 0.766 | 0.813 | 0.688 | 0.7 | 0.748 | 0.693 | 0.67
AGTCCA | 0.72 | 0.678 | 0.661 | 0.732 | 0.681 | 0.772 | 0.699
AGTCAT | 0.558 | 0.597 | 0.543 | 0.581 | 0.575 | 0.609 | 0.601
GGGGCA | 0.698 | 0.685 | 0.671 | 0.697 | 0.708 | 0.715 | 0.718
GAGGCG | 0.444 | 0.367 | 0.411 | 0.381 | 0.382 | 0.403 | 0.389
AGCGTT | 0.957 | 0.881 | 0.803 | 0.932 | 0.932 | 0.837 | 0.905
GCAGTA | 0.933 | 0.916 | 0.777 | 0.825 | 0.837 | 0.965 | 0.938
GGGCAG | 0.556 | 0.59 | 0.603 | 0.579 | 0.555 | 0.623 | 0.614
GGGACA | 0.732 | 0.63 | 0.601 | 0.636 | 0.63 | 0.621 | 0.639
CGGAGC | 0.374 | 0.381 | 0.417 | 0.367 | 0.364 | 0.287 | 0.408
GTGGAG | 0.406 | 0.484 | 0.36 | 0.446 | 0.397 | 0.36 | 0.435
CAGTAA | 0.716 | 0.736 | 0.73 | 0.722 | 0.757 | 0.79 | 0.717
AGAGTG | 0.642 | 0.657 | 0.571 | 0.668 | 0.624 | 0.636 | 0.61
GAGGTG | 0.489 | 0.447 | 0.508 | 0.546 | 0.472 | 0.502 | 0.468
TCAGGA | 0.834 | 0.808 | 0.838 | 0.853 | 0.823 | 0.808 | 0.832
